Results: PubChem BioAssay AID2685 (National Center for Advancing Translational Sciences (NCATS), 2010)
Some of the results follow. Further columns of the screen follow, without active or inactive calls. The list favours compounds with an active or inconclusive main result. The note in brackets gives the kind of curve behind each potency; many fits are weak.

Test: qHTS Assay for Lipid Storage Modulators in Drosophila S3 Cells;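 for cell number change: cells counted by Cell Tracker Red CMTPX staining in the red channel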
Conditions: BODIPY lipid droplet fluorescence, 18-24 h; for cell number change: measured here: cell count max response, cells fed with added oleic acid
Outline: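 Drosophila S3 cells loaded with oleic acid (400 uM, as added) and compounds at several concentrations; lipid droplets imaged by 488-nm laser-scanning cytometry, 500–530 nm intensity and object ratio to cell channel. Percent activity normalized to 20 uM Triacsin C.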

[1] = measured here: cell number channel AC50, cells fed with added oleic acid
[2] = measured here: lipid fluorescence (Fed channel) AC50, cells fed with added oleic acid

SMILES	cell number change [%]	AC50 [1]	AC50 [2]
COc1ccc(-c2noc(CCC(=O)N3CCN(Cc4ccccc4)CC3)n2)cc1	31	25.9 µM [rising, single point]	
COc1ccc(NC(=S)N2CCN(S(=O)(=O)c3ccccc3)CC2)cc1	19.9		
COc1ccc(-c2csc3ncnc(Oc4ccc5c(C)cc(=O)oc5c4)c23)cc1	3.74		0.731 µM [rising, full curve]
Clc1ccc(/C=C/c2nc(Cl)c(-c3ccc(Cl)cc3)c(Cl)n2)cc1	-8.87		0.164 µM [falling, full curve, poor fit]
Cn1nc(-c2ccccc2)nc1-c1ccccc1	15.7		0.0651 µM [rising, full curve]
Nc1cc(Oc2ccc(F)cc2F)cc([N+](=O)[O-])c1	-26.8		29.1 µM [falling, single point]
O=c1[nH]ncc2c3ccccc3n(Cc3cccc(Cl)c3)c12	48.6		
O=C(c1c(F)cccc1F)N1CCN(c2cccc(C(F)(F)F)c2)CC1	-10.3		23.1 µM [falling, single point]
O=C(CN1CCSCC1)N/N=C/c1ccc(Cl)cc1	-39.5	32.6 µM [falling, single point]	
COc1ccc(-c2sc3ccc(OC)cc3c2C#Cc2ccccn2)cc1	-25.8	0.58 µM [rising, single point]	
CC(c1ccco1)N(C(=O)COc1ccc(Cl)cc1Cl)c1ccccn1 (stereo not drawn)		0.0058 µM [falling, full curve, poor fit]	0.231 µM [falling, full curve, poor fit]
COc1ccc(NC(=O)CNC(=O)c2nn(-c3ccc(OC)cc3OC)c(=O)c3ccccc23)c(OC)c1	106	25.9 µM [rising, partial curve]	29.1 µM [rising, single point]
O=C(/C=C/c1ccco1)NC(=S)Nc1ccc(N2CCCC2)cc1	-76.7	23.1 µM [falling, single point]	
O=c1c2ccccc2nc(SCc2cccc(F)c2)n1-c1cccc(S(=O)(=O)N2CCCC2)c1	13.2	2.06 µM [rising, partial curve]	5.8 µM [rising, single point]
COc1cccc2c(SCC(=O)N/N=C/c3ccc(O)cc3O)cc(C)nc12	-34		0.103 µM [falling, partial curve, poor fit]
CN1C(=O)C(/C(N)=N/NC(=O)c2ccccc2)C2CC1(C)Oc1ccccc12 (stereo not drawn)	0.411		4.11 µM [falling, single point]
C(#Cc1ccccc1)Cn1nnc2ccccc21	58.5	0.146 µM [rising, full curve, poor fit]	0.082 µM [rising, full curve]
CCOCCn1c(CN2CCC(C)CC2)nc2c1c(=O)n(C)c(=O)n2C			0.00461 µM [rising, full curve, poor fit]
COc1ccc(C(=O)Nc2ccc(Cl)cc2C(=O)N2CCCC(C)C2)cc1 (stereo not drawn)	81.6	14.6 µM [rising, partial curve]	
O=C(CCCN1C(=O)/C(=C/c2ccccc2Cl)SC1=S)N1CCCC1	-21.8		29.1 µM [falling, single point]
CCCSc1oc(-c2ccco2)nc1S(=O)(=O)c1ccccc1	-20		0.651 µM [rising, single point]

Quoted from the listing:
AC50 [1], `O=C(/C=C/c1ccco1)NC(=S)Nc1ccc(N2CCCC2)cc1` is entered as 23.1 µM [falling, single point]
AC50 [2], `Clc1ccc(/C=C/c2nc(Cl)c(-c3ccc(Cl)cc3)c(Cl)n2)cc1` is entered as 0.164 µM [falling, full curve, poor fit]

Further records.

SMILES	cell number change [%]	AC50 [1]	AC50 [2]
O=C(CCC(=O)OCC(=O)c1ccc(Br)cc1)Nc1ccc(Br)c2cccnc12	42.1	16.4 µM [rising, partial curve, poor fit]	
O=C(O)Cn1cccc1C(=O)c1ccccc1	16		6.51 µM [rising, single point]
CC1CCC/C(=C\Nc2ccc3c(c2)OCO3)C1=O (stereo not drawn)	22	1.84 µM [rising, partial curve, poor fit]	0.366 µM [rising, full curve, poor fit]
Cc1ccccc1-n1c(C)cc(/C=C2/C(=N)N3C(c4ccccc4)=CSC3=NC2=O)c1C	-6.55		
COc1cc(C(=O)NC(=S)N(CCc2ccccc2)CCc2ccccc2)cc(OC)c1OC	-3.56		0.58 µM [rising, single point]
CC(C(=O)N1CCCC1)N1CCN(S(=O)(=O)c2ccc(OC(F)(F)F)cc2)CC1 (stereo not drawn)	-16.3	2.06 µM [falling, partial curve]	3.66 µM [falling, partial curve]
O=S(=O)(c1ccc(F)cc1)N(CCO)CC(O)Cn1c2ccccc2c2ccccc21 (stereo not drawn)	-53.1	29.1 µM [falling, single point]	
CC(=O)c1c(C)[nH]c(C(=O)C(C)Sc2nnc(NC3CC3)s2)c1C (stereo not drawn)	-18.2		25.9 µM [falling, partial curve, poor fit]
COCCNC(=O)C(c1c[nH]c2ccccc12)N(C(=O)c1snc(C(N)=O)c1N)c1cccc(OC)c1 (stereo not drawn)	1.78	0.146 µM [falling, partial curve, poor fit]	
O=c1c2ccccc2n2c(-c3ccc(F)cc3)nnc2n1Cc1ccccc1	3.68		
C/C(=N\NC(=O)C(O)(c1ccccc1)c1ccccc1)c1ccc(NC(=O)CCCC(=O)O)cc1			2.91 µM [rising, partial curve]
O=[N+]([O-])c1ccccc1OCc1nc(-c2cccs2)no1	89.9	23.1 µM [rising, single point]	18.4 µM [rising, single point]
COCCN1CCN(C(=O)c2cc(COc3cncc(Cl)c3)on2)CC1	-6.23		
CCc1cccc(C)c1NC(=O)CSc1nc(C)c(C)o1	-1.02		29.1 µM [rising, single point]
Cc1nnc(NC(=O)CSc2nc3ccccc3[nH]2)s1	76.9	20.6 µM [rising, partial curve]	23.1 µM [rising, single point]
CCOC(=O)C1CCN(C(=O)C2CCCN(S(=O)(=O)c3ccc(OCC)c(Cl)c3)C2)CC1 (stereo not drawn)	-34	23.1 µM [falling, partial curve]	
CN1CCN(C(=O)c2ccc(-c3cccs3)s2)CC1	23.1		
CCCC(=O)Nc1ccc2oc(-c3ccc(OC)c(Br)c3)nc2c1	-44.9	16.4 µM [falling, single point]	0.116 µM [rising, full curve, poor fit]
COc1ccc(CC(=O)NNC(=O)c2ccc(NC(C)=O)cc2)cc1	-9.55	2.91 µM [falling, single point]	
Oc1ccc(Cl)cc1CNCc1ccc(Cl)cc1	-51.6	16.4 µM [falling, single point]	
O=C1CSC(c2cccc([N+](=O)[O-])c2)N1Cc1ccccc1 (stereo not drawn)	19.6		

SMILES	cell number change [%]	AC50 [1]	AC50 [2]
COc1ccc(N(Cc2cc3cc(OC)ccc3[nH]c2=O)C(=O)C2CCCO2)cc1 (stereo not drawn)	11.1		29.1 µM [rising, single point]
CCC(CO)NC(=O)c1cc2c(s1)CCC2 (stereo not drawn)	2.64		2.06 µM [falling, partial curve, poor fit]
COc1cccc(NS(=O)(=O)c2ccc(S(=O)(=O)N3CCCC3)cc2)c1	-7.05		0.82 µM [falling, single point]
CSCC(C)N1CCC(n2nccc2NC(=O)CCCc2ccccc2)CC1 (stereo not drawn)	96.5	29.1 µM [rising, single point]	18.4 µM [rising, partial curve]
CCNC(=O)C(=O)NCC1CCCN1S(=O)(=O)c1cccs1 (stereo not drawn)	22.9		
C=CCN(C1CCCCC1)S(=O)(=O)c1ccc2c(c1)oc(=O)n2C	12.7		0.58 µM [rising, full curve, poor fit]
COC(=O)C1=C(C)N(Cc2ccccc2)C(=NCc2ccco2)N[C@H]1c1ccc(Br)cc1	16		
COc1cccc(NC(=O)c2nc3nc(C)cc(C(F)F)n3n2)c1	49.8	16.4 µM [rising, partial curve]	
OC(COc1ccccc1)CN(Cc1ccccc1)CC(O)COc1ccccc1 (stereo not drawn)	-41.6	29.1 µM [falling, single point]	10.3 µM [falling, partial curve]
COc1cccc(NC(=O)CSc2nnnn2C2CCCCC2)c1	11.7		
Cc1ccc2c(CC(=O)OCn3nnc4ccccc4c3=O)coc2c1	-1.08		0.259 µM [falling, full curve, poor fit]
CCN(CC)c1ccc(C(=O)OCC(=O)NCC2CCCO2)cc1 (stereo not drawn)	17.7		0.58 µM [falling, single point]
Cc1ccccc1NS(=O)(=O)c1nnc(NC(=O)CC(C)C)s1	1.42		
COc1cc(C(=O)NC(C)CCc2ccccc2)cc(OC)c1OC (stereo not drawn)	11.7		0.58 µM [rising, single point]
OC(CNCc1ccccc1)(c1ccccc1)c1ccccc1	-6.38	2.91 µM [rising, single point]	0.103 µM [rising, full curve, poor fit]
CCOC(=O)N1CCOCCOCCN(C(=O)OCC)CCOCC1	-1.44		0.116 µM [falling, full curve, poor fit]
O=C(NCC1CCCO1)C1c2ccccc2C(=O)N1C1CCCCCC1 (stereo not drawn)		6.51 µM [falling, single point]	
O=C(COC(=O)c1ncc(Cl)c(Cl)c1Cl)NCCc1ccccc1	-29.2		
O=C(/C=C/c1c(F)cccc1Cl)N1CCOCC1	-19.4		29.1 µM [rising, single point]
